Measurements reported in patent publication US11618758B2, “Bicyclic and tricyclic pyrimidine tyrosine kinase inhibitors with antitubulin activity and methods of treating a patient” (Duquesne University of the Holy Spirit, priority 2011, dated 2023).
At least one structure is not confirmed: it was looked up by name or label, or the drawing left a doubt.

Test system: colchicine binding site on tubulin
Assay: Inhibition of [3H]colchicine binding
Conditions: compound at 1 μM

`COc1ccc(/C=C\c2cc(OC)c(OC)c(OC)c2)cc1O` [CA, combretastatin] was tested, and the “Inhibition of colchicine binding (1 μM)” value was 98 ± 0.3.
